Some results were stated once for a whole list of compounds, not compound by compound.
Columns and labels:
Type in all cases: cell-based, Escherichia coli
[1] = tested on: E. coli JH017 (potG- mutant overexpressing YqhD); assay: Growth curve of JH017 strain with various concentrations of alcohols (OD595)
Protocol: (§1) After 2 h of induction, the cultures were diluted to 0.35 OD595 in a fresh LB medium supplemented with kanamycin and 50 μg/ml of chloraphenicol, with the addition of 0-18% ethanol, 0-5% 1-propanol, 0-5% iso-propanol, 0-7% 1-butanol, and 0-7% iso-butanol in triplicate.
(§2) Growth of JH016 was inhibited by 1-butanol at concentrations at least 2.5% (v/v), isobutanol at least 4%, 1-propanol at least 5%, isopropanol at least 5%, or ethanol at least 10%. And the growth of JH017 was inhibited by 1-butanol at concentrations at least 2% (v/v), isobutanol at least 3.5%, 1-propanol at least 5%, isopropanol at least 5%, or ethanol at least 12%. The abovementioned concentration of alcohol would for sure inhibit the growth of wild type E. coli.

[2] = tested on: E. coli JH007 (ydhF- mutant overexpressing PhoH); assay: Growth curve of JH007 strain with various concentrations of alcohols (OD595); details: JH007, IPTG-induced, LB medium, 37° C.
Protocol: as §1
Referring to FIG. 7, cell growth condition of JH007 strain was monitored with OD595 with the changes of cell turbidities.

[3] = tested on: E. coli JH016 (potG- mutant overexpressing Hmp); assay: Growth curve of JH016 strain with various concentrations of alcohols (OD595)
Protocol: as §1, §2

SMILES: CC(C)O [isopropanol]
- alcohol concentration at which growth of JH017 was inhibited [1]: at least 5 % (v/v)
- alcohol concentration at which growth of JH007 was inhibited [2]: at least 8 % (v/v)
- alcohol concentration at which growth of JH016 was inhibited [3]: at least 5 % (v/v)
